Results reported in patent US7598352B2, “Method of identifying polypeptide monobodies which bind to target proteins and use thereof” (University of Rochester, priority 2000, dated 2009).
These are yes or no findings as the source states them, for the method shown. Some entries that bind do so weakly or less than the wild type.

Amino acid sequences for entries named in this document (tags omitted). Residues count along the entry.
UniProt Q15788, residues 570-780: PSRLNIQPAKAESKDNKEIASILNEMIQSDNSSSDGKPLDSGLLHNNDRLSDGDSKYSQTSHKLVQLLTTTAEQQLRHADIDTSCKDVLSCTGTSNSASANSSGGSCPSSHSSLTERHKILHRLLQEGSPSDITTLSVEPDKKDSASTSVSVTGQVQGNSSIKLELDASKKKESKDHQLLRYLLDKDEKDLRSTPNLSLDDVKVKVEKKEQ

Columns and labels:
[1] = biological target: LexA-ERα-EF fusion protein (E and F domains of Estrogen Receptor α, residues 297-595) (human); assay: yeast two-hybrid quantitative β-galactosidase assay, with E2
[2] = biological target: LexA-ERα-EF fusion protein (E and F domains of Estrogen Receptor α, residues 297-595) (human); assay: yeast two-hybrid quantitative β-galactosidase assay, with different agonists

SRC-1 (steroid receptor coactivator-1) NR-box fragment, residues 570-780, activation domain fusion (from UniProt Q15788 570-780)
binding [1]: binds
binding [2]: binds
